Experimental data reported in publication doi:10.1101/2024.07.23.604836.
These are yes or no findings as the source states them, for the method shown. Sequences can lack the tags named with a protein.

Target: T1, Poliovirus receptor (PVR, CD155) on the surface of Mel526 cells (human (endogenous in Mel526)), P15151
T1 chain: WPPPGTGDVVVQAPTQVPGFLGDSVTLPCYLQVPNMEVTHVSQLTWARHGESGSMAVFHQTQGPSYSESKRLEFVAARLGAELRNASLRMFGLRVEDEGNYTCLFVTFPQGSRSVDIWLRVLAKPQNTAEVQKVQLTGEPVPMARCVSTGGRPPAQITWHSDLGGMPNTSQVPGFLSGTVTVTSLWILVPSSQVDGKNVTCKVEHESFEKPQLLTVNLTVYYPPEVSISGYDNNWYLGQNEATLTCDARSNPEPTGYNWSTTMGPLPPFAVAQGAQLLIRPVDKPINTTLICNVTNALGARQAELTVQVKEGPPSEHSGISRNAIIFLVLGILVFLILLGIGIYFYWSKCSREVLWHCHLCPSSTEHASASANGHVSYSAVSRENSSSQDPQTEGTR
Assay: flow cytometry on cells
Conditions: remark: other sources report otherwise

binding: no binding (tested: 5 μg/mL)
B1: CD96-Fc (soluble, Fc-tagged ectodomain of CD96), P40200 22-519 (Fc fusion)
chain: VWEKTVNTEENVYATLGSDVNLTCQTQTVGFFVQMQWSKVTNKIDLIAVYHPQYGFYCAYGRPCESLVTFTETPENGSKWTLHLRNMSCSVSGRYECMLVLYPEGIQTKIYNLLIQTHVTADEWNSNHTIEIEINQTLEIPCFQNSSSKISSEFTYAWSVENSSTDSWVLLSKGIKEDNGTQETLISQNHLISNSTLLKDRVKLGTDYRLHLSPVQIFDDGRKFSCHIRVGPNKILRSSTTVKVFAKPEIPVIVENNSTDVLVERRFTCLLKNVFPKANITWFIDGSFLHDEKEGIYITNEERKGKDGFLELKSVLTRVHSNKPAQSDNLTIWCMALSPVPGNKVWNISSEKITFLLGSEISSTDPPLSVTESTLDTQPSPASSVSPARYPATSSVTLVDVSALRPNTTPQPSNSSMTTRGFNYPWTSSGTDTKKSVSRIPSETYSSSPSGAGSTLHDNVFTSTARAFSEVPTTANGSTKTNHVHITGIVVNKPKDGM
